The values below come from PMC7196836, “Molecular analysis of the ribosome recycling factor ABCE1 bound to the 30S post‐splitting complex” (The EMBO Journal, 2020).

For this assay, the target named is ribosomal protein eS24 of Thermococcus celer (T. celer (endogenous in T. celer cells)). Description: cryo-EM structure; post-splitting complex from 1 nmol T. celer 70S split by ABCE1^IIEA (8 uM), aPelota and aRF1 (5 uM each), 0.5 mM AMP-PNP, 50 mM HEPES-KOH pH 7.5, 30 mM KCl, 10 mM MgCl2, 2 mM DTT, 65 °C 15 min; cross-linked with 1% formaldehyde; 30S fractions of a 10-30% sucrose gradient; both purified.

These are yes or no findings as the source states them, for the method shown.

As to “ABCE1^IIEA (E238A/E485A), hydrolysis-deficient ABCE1 from Saccharolobus solfataricus (from UniProt Q980K5 1-594) (enzyme)”, the binding entry was “no binding”.
